Out of some 320,000 compounds screened, about 22,000 (6.9%) were called active. Inconclusive means that the source gave no clear call. Such entries were picked first, then a sample of the others. Calls come from the whole dose curve; as a rule, active = well fitted inhibition curve with a large enough effect; inconclusive = small, poorly fitted or top-dose-only effect, or another doubt; inactive = no such curve, though single readings can be large or run the other way. Where the call is inconclusive, the potency comes from a doubtful curve fit.
Assay: Primary qHTS for delayed death inhibitors of the malarial parasite plastid, 96 hour incubation
Conditions: P. falciparum luciferase reporter growth; series mostly up to 28.7 µM; activity change, negative = inhibition: at the top concentration
Method in brief: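 96 h incubation, 37 C, 5% CO2, of luciferase-reporter P. falciparum-infected RBCs (2% hematocrit, 0.05% parasitemia final) with test compounds; endpoint luminescence.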
% is set by controls: 0 for no effect and ±100 for the full control effect; potency is the fitted concentration of half-maximal effect.

Compound	Potency	activity change, negative = inhibition
O=C(CNS(=O)(=O)c1ccc(Br)cc1)N1CCN(c2ccc(F)cc2)CC1	active: 13.1 µM	
COc1cccc(N2CC(C(=O)Nc3nnc(SCC(=O)N4CCOCC4)s3)CC2=O)c1 (stereo not given)	inconclusive: 1.65 µM [inhibitor, full curve, poor fit]	
O=C(N/N=C1\CCc2ccccc21)c1ccccc1O		inactive: -2.8%
CCCCCCC(=O)Nc1nc(C)c(-c2csc(Nc3cccc(OC)c3)n2)s1	active: 7.38 µM	
COc1ccccc1N/C=C/C(=C(C#N)C#N)N(C)C	inconclusive: 13.1 µM [inhibitor, single point]	
O=C(CC1C(=O)NCCN1Cc1ccoc1)NCCCn1ncc2ccccc21 (stereo not given)		inactive: 0%
Cn1cc(S(=O)(=O)Oc2ccccc2)c(=O)n(C)c1=O	inconclusive: 0.0037 µM [inhibitor, full curve, poor fit]	
COc1ccc2nc(SC(C(=O)c3ccccc3)c3ccccc3)nc(C)c2c1 (stereo not given)	active: 13.1 µM	
Cc1ccc(C(=O)NNC(=O)C2CCCN(c3ncccn3)C2)cc1 (stereo not given)	inconclusive: 0.0037 µM [inhibitor, full curve, poor fit]	
Cc1cc(C)n(C(=O)CCC2COc3ccccc3O2)n1 (stereo not given)	inconclusive: 18.5 µM [inhibitor, single point]	
COc1cc2c(=O)n(CCC(=O)NCC3CCCO3)c(=O)n(CC(=O)Nc3ccc(C)cc3C)c2cc1OC (stereo not given)	inconclusive: 18.5 µM [inhibitor, single point]	
CCCCC(CC)COC(=O)CCCCC(=O)OCC(CC)CCCC (stereo not given)		inactive: 63.3%
COc1cc(C(=O)N=c2sc3ccccc3n2C)cc(OC)c1OC	inconclusive: 4.15 µM [inhibitor, single point]	
Cc1cccc(Cc2nnc(CCC(=O)N3CCCC(CN4CCOCC4)C3)o2)c1 (stereo not given)	inconclusive: 14.7 µM [inhibitor, single point]	
Cc1ccc(C(=O)OCC(=O)NCCc2ccccc2)cc1S(=O)(=O)N1CCOCC1		inactive: -6.95%
COCCCN(C(=O)CCOc1ccccc1C)c1c(N)n(Cc2ccccc2)c(=O)[nH]c1=O	inconclusive: 9.28 µM [inhibitor, partial curve, poor fit]	
COC(=O)C1=C(c2ccc3ccccc3c2)C[C@@H]2CC[C@H]1N2C(=O)NCC1CC1	inconclusive: 5.22 µM [inhibitor, single point]	
Cc1ccc(-c2csc(Nc3ccc(C(=O)O)cc3)[n+]2Cc2ccccc2)cc1	inconclusive: 5.22 µM [inhibitor, partial curve]	
CCOC(=O)c1c(CN(CC)CC)oc2cc(Br)c(O)cc12	inconclusive: 14.7 µM [inhibitor, single point]	
CCC1CCCCN1C(=O)COc1c(Br)cc(Br)c2cccnc12 (stereo not given)	inconclusive: 18.5 µM [inhibitor, single point]	
Cc1ccc(C)c(-c2csc(NC(=O)c3cnccn3)n2)c1	active: 11.7 µM	
Cc1ccc(NC(=O)CC(C)S(=O)(=O)c2ccc3c(c2)NC(=O)CO3)c(Cl)c1 (stereo not given)		inactive: 42.2%
CCN(CC)CC(=O)N1c2ccccc2Oc2c(c(=O)n(C)c(=O)n2C)C1c1cccc([N+](=O)[O-])c1 (stereo not given)	inconclusive: 5.22 µM [inhibitor, partial curve, poor fit]	
O=C(CCn1nc(-c2ccc(Cl)cc2)c2ccccc2c1=O)NN1CCOCC1	inconclusive: 18.5 µM [inhibitor, single point]	

No new results follow: entries from further up.
Compound	Potency	activity change, negative = inhibition
O=C(CC1C(=O)NCCN1Cc1ccoc1)NCCCn1ncc2ccccc21 (stereo not given)		inactive: 0%
Cn1cc(S(=O)(=O)Oc2ccccc2)c(=O)n(C)c1=O	inconclusive: 0.0037 µM [inhibitor, full curve, poor fit]	
COc1ccc2nc(SC(C(=O)c3ccccc3)c3ccccc3)nc(C)c2c1 (stereo not given)	active: 13.1 µM	
Cc1ccc(C(=O)NNC(=O)C2CCCN(c3ncccn3)C2)cc1 (stereo not given)	inconclusive: 0.0037 µM [inhibitor, full curve, poor fit]	
Cc1cc(C)n(C(=O)CCC2COc3ccccc3O2)n1 (stereo not given)	inconclusive: 18.5 µM [inhibitor, single point]	
COc1cc2c(=O)n(CCC(=O)NCC3CCCO3)c(=O)n(CC(=O)Nc3ccc(C)cc3C)c2cc1OC (stereo not given)	inconclusive: 18.5 µM [inhibitor, single point]	
CCCCC(CC)COC(=O)CCCCC(=O)OCC(CC)CCCC (stereo not given)		inactive: 63.3%
COc1cc(C(=O)N=c2sc3ccccc3n2C)cc(OC)c1OC	inconclusive: 4.15 µM [inhibitor, single point]	
Cc1cccc(Cc2nnc(CCC(=O)N3CCCC(CN4CCOCC4)C3)o2)c1 (stereo not given)	inconclusive: 14.7 µM [inhibitor, single point]	
Cc1ccc(C(=O)OCC(=O)NCCc2ccccc2)cc1S(=O)(=O)N1CCOCC1		inactive: -6.95%
COCCCN(C(=O)CCOc1ccccc1C)c1c(N)n(Cc2ccccc2)c(=O)[nH]c1=O	inconclusive: 9.28 µM [inhibitor, partial curve, poor fit]	
COC(=O)C1=C(c2ccc3ccccc3c2)C[C@@H]2CC[C@H]1N2C(=O)NCC1CC1	inconclusive: 5.22 µM [inhibitor, single point]	
Cc1ccc(-c2csc(Nc3ccc(C(=O)O)cc3)[n+]2Cc2ccccc2)cc1	inconclusive: 5.22 µM [inhibitor, partial curve]	
CCOC(=O)c1c(CN(CC)CC)oc2cc(Br)c(O)cc12	inconclusive: 14.7 µM [inhibitor, single point]	
CCC1CCCCN1C(=O)COc1c(Br)cc(Br)c2cccnc12 (stereo not given)	inconclusive: 18.5 µM [inhibitor, single point]	
Cc1ccc(C)c(-c2csc(NC(=O)c3cnccn3)n2)c1	active: 11.7 µM	
Cc1ccc(NC(=O)CC(C)S(=O)(=O)c2ccc3c(c2)NC(=O)CO3)c(Cl)c1 (stereo not given)		inactive: 42.2%
CCN(CC)CC(=O)N1c2ccccc2Oc2c(c(=O)n(C)c(=O)n2C)C1c1cccc([N+](=O)[O-])c1 (stereo not given)	inconclusive: 5.22 µM [inhibitor, partial curve, poor fit]	
O=C(CCn1nc(-c2ccc(Cl)cc2)c2ccccc2c1=O)NN1CCOCC1	inconclusive: 18.5 µM [inhibitor, single point]	

(next part)

Compound	Potency	activity change, negative = inhibition
CCn1c(=N)n(CC(=O)c2ccc(Br)s2)c2ccccc21	inconclusive: 9.28 µM [inhibitor, single point]	
O=C(Oc1ccc(N2C(=O)CCC2=O)cc1)c1ccco1		inactive: 24.7% [at 5.75 µM]
CCCCOC(=O)/C=C\C(=O)NC(N)=O	inconclusive: 18.5 µM [inhibitor, single point]	
CCOC(=O)N1CCN(C(=O)COc2cccc3c2CCN(Cc2ccc(F)cc2)C3=O)CC1	inconclusive: 4.65 µM [inhibitor, partial curve]	
O=C(CN1CCN(c2ccc(F)cc2)CC1)NCc1cccs1		inactive: -0.708%
COC(=O)c1ccccc1NC(=O)COC(=O)CSc1nnc(N)s1		inactive: -1.52%
C=CCC1(CC=C)CCCN1C(=O)c1cc(COc2ccccc2SC)on1		inactive: -12.1%
CCCn1nc(NC(=O)c2cccs2)c2cc3ccc(C)cc3nc21	inconclusive: 3.7 µM [inhibitor, single point]	
O=C(CSc1nnnn1C1CCCC1)N1CCN(C(=O)c2ccco2)CC1	inconclusive: 18.5 µM [inhibitor, single point]	
COc1ccc(C(=O)ON=C2CCN(c3ccc([N+](=O)[O-])cc3)CC2)cc1	inconclusive: 18.5 µM [inhibitor, single point]	
COc1ccc(S(=O)(=O)Nc2cccc(-c3ccc4nncn4n3)c2)cc1	inconclusive: 9.28 µM [inhibitor, partial curve, poor fit]	
Cc1ccc(C2C=C(c3ccccc3OC(F)F)Nc3ncnn32)cc1 (stereo not given)	inconclusive: 4.15 µM [inhibitor, partial curve]	
CCCCCc1nc2c(c3c1CCCC3)CCCC2	inconclusive: 18.5 µM [inhibitor, single point]	
O=C(Nc1cccc(Cl)c1)NC1CC2CCC(C1)N2Cc1cccs1 (stereo not given)	inconclusive: 18.5 µM [inhibitor, single point]	
O=C(NC1CCCCC1)c1ccccc1-c1ccccc1	inconclusive: 18.5 µM [inhibitor, single point]	
COc1ccc2nc(/N=C/c3c(C)[nH]n(-c4ccc(C)cc4)c3=O)sc2c1	inconclusive: 18.5 µM [inhibitor, single point]	
CCN(CC)C(=O)Cn1cc(C(=O)C(=O)N2CCN(c3ccc(OC)cc3)CC2)c2ccccc21		inactive: 57.2%
O=C(COc1ccc2c(-c3ccccc3)cc(=O)oc2c1)NCC1CCC(C(=O)O)CC1 (stereo not given)	inconclusive: 14.7 µM [inhibitor, single point]	
CN1CCN(c2ccc(CNS(=O)(=O)c3ccc(Cl)cc3)cc2)CC1		inactive: 4.62%
CC(C)N(Cc1cnn(C)c1)Cc1nc(Cc2ccccc2Cl)no1	inconclusive: 18.5 µM [inhibitor, single point]	
Cc1ccc(-c2nn(CC(=O)NCc3ccccn3)c(=O)c3ccccc23)cc1S(=O)(=O)N(C)C		inactive: 1.91%
COc1ccc(Cn2nnnc2C(CC(C)C)N2CCC(C(N)=O)CC2)cc1 (stereo not given)	inconclusive: 18.5 µM [inhibitor, single point]	
CN1CCN(C(=O)c2cnn3c(C(F)(F)F)cc(-c4cccs4)nc23)CC1	inconclusive: 5.86 µM [inhibitor, single point]	
COc1cc2c(cc1OC)CN(Cc1ccc(C)cc1)CC2	inconclusive: 18.5 µM [inhibitor, single point]	

Compound	Potency	activity change, negative = inhibition
CCOC(=O)C1CCN(CC(=O)N2CCc3ccccc32)CC1		inactive: 14.1%
O=C1Cc2cc(S(=O)(=O)NCc3ccccc3Cl)cc3c2N1CCC3		inactive: -21.8%
O=C(Cc1c(Sc2ccccc2)c2ccccc2n1Cc1ccccc1)NCCO	inconclusive: 11.7 µM [inhibitor, partial curve, poor fit]	
Clc1ccc(CN2C3=NCCCN3c3ccccc32)cc1Cl		inactive: -7.59%
CCn1ccnc1CN(C)Cc1cn(-c2ccc(C)cc2)nc1-c1cccc(C)c1	inconclusive: 10.4 µM [inhibitor, partial curve, poor fit]	
COC(=O)c1ccc(COC(=O)C(CCSC)NC(=O)COc2ccccc2)cc1 (stereo not given)		inactive: 0.487%
CCc1c(C)nc(N)nc1N1N=C1SC	inconclusive: 4.65 µM [inhibitor, partial curve, poor fit]	
CCNS(=O)(=O)c1ccc(CCC(=O)NCc2ccccc2)cc1		inactive: 16.4%
COc1cc(CNCc2ccccn2)ccc1OCC(=O)NC1CCCCC1	inconclusive: 18.5 µM [inhibitor, single point]	
COc1ccc(CCCC(=O)NCCc2ccccc2)c(C)c1	inconclusive: 0.657 µM [inhibitor, partial curve, poor fit]	
O=C(Nc1cccc(CNCCc2c[nH]c3ccccc23)c1)c1ccccc1Cl	inconclusive: 18.5 µM [inhibitor, single point]	
C/C(=N\Nc1c(F)c(F)c(Br)c(F)c1F)c1ccncc1	inconclusive: 18.5 µM [inhibitor, single point]	
CCOc1ccc(N(CC(=O)NCc2ccccc2Cl)S(=O)(=O)c2c(C)noc2C)cc1	inconclusive: 10.4 µM [inhibitor, single point]	
Cc1cccc(NC(=O)C2(C)CC3c4ccccc4C2c2ccccc23)c1 (stereo not given)	inconclusive: 0.37 µM [inhibitor, full curve]	
COC(=O)CSC1=C(C#N)C(c2ccccc2)CC(=O)N1 (stereo not given)	active: 9.28 µM	
NC(=O)COc1ccc(Nc2nnc(-c3ccc(O)cc3)c3ccccc23)cc1	inconclusive: 11.7 µM [inhibitor, single point]	
Cc1ccc(Cn2c(=S)[nH]c3ccccc3c2=O)cc1	inconclusive: 0.0928 µM [inhibitor, full curve, poor fit]	
COc1ccc(NC(=O)NCc2ccccc2F)cc1OC	active: 10.4 µM	
O=C(CNS(=O)(=O)c1ccc2ccccc2c1)OCc1csc(-c2ccccc2)n1	inconclusive: 18.5 µM [inhibitor, single point]	
COc1ccc(CCC(=O)NCCS(=O)(=O)N2CCN(c3ccccc3OC)CC2)cc1		inactive: 37.7%
CC1CCCCN1C(=O)CN1C(=O)c2ccccc2S1(=O)=O (stereo not given)		inactive: 56.9%
O=C(NNC(=O)C1CC2CCC1C2)c1sc2ccccc2c1Cl (stereo not given)		inactive: 46.6%
